According to publication PMC7063070:

Biological target: integrin αVβ5 (human (endogenous in MDA-MB-435S))
Experiment: isolation of cross-linked integrin adhesion complexes with western blot; integrin adhesion complexes isolated as for MS (DTBP cross-linking, removal of cell bodies), blotted; MDA-MB-435S compared with the integrin αV knock-down clones 2αV and 3αV; no bait

binding: binds
B1: KN motif and ankyrin repeat domain-containing protein 2 (KANK2) (protein, UniProt Q63ZY3 1-851)
chain: MAQVLHVPAPFPGTPGPASPPAFPAKDPDPPYSVETPYGYRLDLDFLKYVDDIEKGHTLRRVAVQRRPRLSSLPRGPGSWWTSTESLCSNASGDSRHSAYSYCGRGFYPQYGALETRGGFNPRVERTLLDARRRLEDQAATPTGLGSLTPSAAGSTASLVGVGLPPPTPRSSGLSTPVPPSAGHLAHVREQMAGALRKLRQLEEQVKLIPVLQVKLSVLQEEKRQLTVQLKSQKFLGHPTAGRGRSELCLDLPDPPEDPVALETRSVGTWVRERDLGMPDGEAALAAKVAVLETQLKKALQELQAAQARQADPQPQAWPPPDSPVRVDTVRVVEGPREVEVVASTAAGAPAQRAQSLEPYGTGLRALAMPGRPESPPVFRSQEVVETMCPVPAAATSNVHMVKKISITERSCDGAAGLPEVPAESSSSPPGSEVASLTQPEKSTGRVPTQEPTHREPTRQAASQESEEAGGTGGPPAGVRSIMKRKEEVADPTAHRRSLQFVGVNGGYESSSEDSSTAENISDNDSTENEAPEPRERVPSVAEAPQLRPAGTAAAKTSRQECQLSRESQHIPTAEGASGSNTEEEIRMELSPDLISACLALEKYLDNPNALTERELKVAYTTVLQEWLRLACRSDAHPELVRRHLVTFRAMSARLLDYVVNIADSNGNTALHYSVSHANFPVVQQLLDSGVCKVDKQNRAGYSPIMLTALATLKTQDDIETVLQLFRLGNINAKASQAGQTALMLAVSHGRVDVVKALLACEADVNVQDDDGSTALMCACEHGHKEIAGLLLAVPSCDISLTDRDGSTALMVALDAGQSEIASMLYSRMNIKCSFAPMSDDESPTSSSAEE

These are yes or no findings as the source states them, for the method shown. Binding seen in cells or lysates may run through a third protein. Binding calls can cover weak binding; strength is not graded here.
